The text below walks through data of patent EP4610267A1, “CYCLIC DINUCLEOTIDES AND CONJUGATES THEREOF WITH ANTIBODIES” (priority 2024, dated 2025).

The series is described as follows: Compound-to-antibody ratio (DAR) of antibody CDN conjugates by LC-MS. Here is the method: Antibody CDN-conjugates were analyzed to determine the extent of conjugation. A compound-to-antibody ratio was extrapolated from LC-MS data for reduced samples. LC-MS allows quantitation of the average number of molecules of linker-payload attached to an antibody in a conjugate sample. Mass spectral data enables identification of the component species in the mixture, e.g., LC, LC+1, LC+2, HC, HC+1, HC+2, etc. From the average loading on the LC and HC chains, the average compound to antibody ratio can be calculated for an antibody conjugate. A compound-to-antibody ratio for a given conjugate sample represents the average number of compound (linker-payload) molecules attached to a tetrameric antibody containing two light chains and two heavy chains. The samples were reduced with 40 mM TCEP or 5.5 mM DTT, injected onto a MassPREP Micro Desalting column (20 µm, 5-mm by 2.1-mm ID, Waters) equilibrated in 0.1% formic acid (FA) in H2O and eluted by a fast gradient (4min) to 0.1% FA in acetonitrile. The separation was carried out by AQUITY UPLC I-Class system (Waters) and was on-line coupled to Mass Spectrometer Synapt G2 (Waters) to acquire mass spectra using electrospray ionization in positive mode. The TOF mass range was set from m/z 500 to 4000. The raw spectrum was subtracted and deconvoluted (MaxEnt 1, Waters) to produce the final spectrum. Conjugates were profiled using analytical size-exclusion chromatography on Superdex 200 equilibrated in PBS pH7.4; aggregation was analyzed based on analytical size exclusion chromatography.

Where [1] appears, read: compound conjugated to anti TROP2 mA5 via engineered cysteines (light chain V110C, heavy chain S375C).
The mark [2] stands for this setting: compound conjugated to isotype mAb (Table 19).

Take “4-((S)-2-((S)-2-(2-(2,5-dioxo-2,5-dihydro-1H-pyrrol-1-yl)acetamido)-3-methylbutanamido)-5-ureidopentanamido)benzyl (2-(((9-((6R,8R,9S,13aR,15R,16R,16aR,17R)-16,17-difluoro-3,11-dimercapto-3,11-dioxido-8-(6-oxo-1,6-dihydro-9H-purin-9-yl)decahydro-6,9-methanofuro[3,2-m][1,3,6,9,12]pentaoxa[2,10]diphosphacyclopentadecin-15-yl)-9H-purin-6-yl)carbamoyl)oxy)ethyl)(methyl)carbamate [Compound 3.3]”: the “Drug Antibody Ratio” value by setting is: under setting [1], 3.7; under setting [2], 3.8.
The like results for “4-((S)-2-((S)-2-(2-(2,5-dioxo-2,5-dihydro-1H-pyrrol-1-yl)acetamido)-3-methylbutanamido)-5-ureidopentanamido)benzyl (9-((6R,8R,9S,13aR,15R,16R,16aR,17R)-16,17-difluoro-3,11-dimercapto-3,1 1-dioxido-8-(6-oxo-1,6-dihydro-9H-purin-9-yl)decahydro-6,9-methanofuro[3,2-m][1,3,6,9,12]pentaoxa[2,10]diphosphacyclopentadecin-15-yl)-9H-purin-6-yl)carbamate [Compound 3.13]” were, in that order, 3.3 and 3.8.
